Test results as given in PMC6300602.
No constants are given. Whether binding was seen depends on the method and setting. Binding seen in cells or lysates may run through a third protein. Some results given as binding are weak or reduced against the parent protein; the word gives no strength. For some of these results: Where a sequence is shown, tags or fusion partners need not be part of it.

The chains behind the UniProt entries cited, without tags or fusion partners.
UniProt Q12522: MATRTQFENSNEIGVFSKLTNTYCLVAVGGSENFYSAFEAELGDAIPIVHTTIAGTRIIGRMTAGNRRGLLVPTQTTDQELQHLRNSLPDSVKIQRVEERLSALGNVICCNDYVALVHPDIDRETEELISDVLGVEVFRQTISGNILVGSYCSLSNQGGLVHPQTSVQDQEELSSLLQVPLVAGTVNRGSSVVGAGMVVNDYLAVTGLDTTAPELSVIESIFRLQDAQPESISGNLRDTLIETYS

Legend:
Nop2 (S. cerevisiae) = target: T1, Nop2 (S. cerevisiae) (UniProt P40991); assay: co-IP; Nop2 (Protein A-containing tag) retrieved with its pre-60S particles from yeast lysate on IgG sepharose, eluted with TEV protease, western blot; lysis buffer 50 mM Tris-HCl pH 7.8, 150 mM NaCl, 1.5 mM MgCl2, 0.1% NP-40, 5 mM beta-mercaptoethanol
T1 sequence: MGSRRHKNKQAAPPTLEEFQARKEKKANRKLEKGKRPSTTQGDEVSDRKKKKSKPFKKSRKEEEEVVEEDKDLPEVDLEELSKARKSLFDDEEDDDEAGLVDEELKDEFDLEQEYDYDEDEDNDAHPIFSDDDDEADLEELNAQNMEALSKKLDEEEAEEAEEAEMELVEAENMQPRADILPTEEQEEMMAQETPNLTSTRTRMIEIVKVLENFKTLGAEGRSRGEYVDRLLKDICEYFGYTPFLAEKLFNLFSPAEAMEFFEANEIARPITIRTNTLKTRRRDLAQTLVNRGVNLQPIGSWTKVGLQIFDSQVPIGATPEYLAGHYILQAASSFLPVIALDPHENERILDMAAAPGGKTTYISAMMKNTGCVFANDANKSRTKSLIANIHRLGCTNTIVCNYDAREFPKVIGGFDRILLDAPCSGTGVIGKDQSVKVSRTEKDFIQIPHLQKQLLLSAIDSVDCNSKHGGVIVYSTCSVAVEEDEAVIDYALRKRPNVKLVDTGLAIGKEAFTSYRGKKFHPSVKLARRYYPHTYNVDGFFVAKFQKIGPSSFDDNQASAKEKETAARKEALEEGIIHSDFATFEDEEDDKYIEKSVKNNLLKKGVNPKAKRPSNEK

[1] = target: T2, Kre35-TAP (S. cerevisiae) (UniProt P53145); assay: co-IP; Kre35-TAP retrieved with cytoplasmic pre-60S particles from yeast lysate on IgG sepharose, eluted with TEV protease, western blot; cells expressing or depleted of Mak5 (doxycycline); particle amounts normalised to Rpl15
T2 sequence: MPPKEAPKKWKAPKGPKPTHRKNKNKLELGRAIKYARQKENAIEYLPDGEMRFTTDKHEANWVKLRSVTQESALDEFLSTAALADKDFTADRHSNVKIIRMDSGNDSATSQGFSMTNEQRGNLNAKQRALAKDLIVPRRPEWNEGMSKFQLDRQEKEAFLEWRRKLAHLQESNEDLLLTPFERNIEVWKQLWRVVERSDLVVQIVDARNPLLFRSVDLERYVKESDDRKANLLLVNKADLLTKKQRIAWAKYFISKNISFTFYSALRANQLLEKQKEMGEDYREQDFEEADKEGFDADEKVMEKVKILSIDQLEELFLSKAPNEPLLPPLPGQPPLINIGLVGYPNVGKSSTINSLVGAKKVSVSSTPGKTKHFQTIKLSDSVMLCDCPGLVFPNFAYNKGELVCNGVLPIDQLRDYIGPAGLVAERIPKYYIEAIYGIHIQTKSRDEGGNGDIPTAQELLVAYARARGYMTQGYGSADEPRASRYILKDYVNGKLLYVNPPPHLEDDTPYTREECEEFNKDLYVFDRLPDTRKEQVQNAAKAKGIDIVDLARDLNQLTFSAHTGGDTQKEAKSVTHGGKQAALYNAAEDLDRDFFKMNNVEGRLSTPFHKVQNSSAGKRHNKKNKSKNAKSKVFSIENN

[2] = target: TAP-tagged Tif6 (S. cerevisiae) (UniProt Q12522); assay: co-IP; Tif6-TAP retrieved with late pre-60S particles from yeast lysate on IgG sepharose, eluted with TEV protease, western blot; cells expressing (Gal) or depleted of (Glu) Spb4; particle amounts normalised to Tif6 and Rpl15

B1: Mak5 (enzyme, UniProt P38112 1-773)
chain: MGKKRAPQKGKTVTKPQEIIVDESKLNWKPVDIPDTLDDFGGFYGLEEIDGVDVKVVDGKVTFVTKKDSKVLKDSNKEKVGDDQESVENESGSDSESELLEFKNLDDIKEGELSAASYSSSDEDEQGNIESSKLTDPSEDVDEDVDEDVLKENVFNKDINIDDISPVNLPEWTNLAPLSMTILQSLQNLNFLRPTEIQKKSIPVIMQGVDVMGKASTGSGKTLAYGIPIVEKLISNFSQKNKKPISLIFTPTRELAHQVTDHLKKICEPVLAKSQYSILSLTGGLSIQKQQRLLKYDNSGQIVIATPGRFLELLEKDNTLIKRFSKVNTLILDEADRLLQDGHFDEFEKIIKHLLVERRKNRENSEGSSKIWQTLIFSATFSIDLFDKLSSSRQVKDRRFKNNEDELNAVIQHLMSKIHFNSKPVIIDTNPESKVSSQIKESLIECPPLERDLYCYYFLTMFPGTTLIFCNAIDSVKKLTVYLNNLGIPAFQIHSSMTQKNRLKSLERFKQQSAKQKTINHSNPDSVQLSTVLIASDVAARGLDIPGVQHVIHYHLPRSTDIYIHRSGRTARAGSEGVSAMICSPQESMGPLRKLRKTLATKNSVSTDLNSRSTNRKPIKWQNTVPLLPIETDILSQLRERSRLAGELADHEIASNSLRKDDNWLKKAADELGIDVDSDEDDISKSNSDTFLLKNKNKKMQKTINKDKVKAMRATLNELLSVPIRKDRRQKYLTGGLVNLADNLVKKRGHNSIIGHEKTNALETLKKKKKRNN
With B1 the binding (Nop2 (S. cerevisiae)) was “binds”.

B2: Spb4 (enzyme, UniProt P25808 1-606)
chain: MSKSLEWDNLGFSLLPWIRTGLDVMGFETMTPVQASTIPMLAGNKDVVVDSVTGSGKTAAFVIPVLEKVVKEEANTSKFKKAHFHSLIIAPTRELSRQIESVVLSFLEHYPSDLFPIKCQLLVGTNEATVRDDVSNFLRNRPQILIGTPGRVLDFLQMPAVKTSACSMVVMDEADRLLDMSFIKDTEKILRLLPKQRRTGLFSATMRSAGSDIFKTGLRNPVRITVNSKNQAPSSLKLNYCVVNPAEKLQLLVSILNNYKFKKCIVYFPTCVSVSYFYSFIQYLGKRNILVNEVEIFSLHGKLQTSARTKTLTAFTDSLSNSVLFTTDVAARGIDIPDVDLVIQLDPPTNTDMFMHRCGRTGRANRVGKAITFLNEGREEDFIPFMQVKNVELEELDLEVKGITTNFYEDFRNWILEDRDRFDKGVKAYVAFIKYYSNHSATSIFRLQSLDYVGIAKLYGLFRLPRMPEITKYLATEKQEGIFPGNWLVDPPVNMDEYKYKDKKREKERQETLKNISLINDKKKLKSELKKKNLAWSDKTLTKERKLERKEKMSLKRKAIEEELKAEELDENAEEERIKEDWKEIVLQNKRKKVSSKAIQGNFDDL
With B2 the binding (Nop2 (S. cerevisiae)) was “binds”.

B3: Rpl10-GFP (protein, UniProt P41805 1-221)
chain: MARRPARCYRYQKNKPYPKSRYNRAVPDSKIRIYDLGKKKATVDEFPLCVHLVSNELEQLSSEALEAARICANKYMTTVSGRDAFHLRVRVHPFHVLRINKMLSCAGADRLQQGMRGAWGKPHGLAARVDIGQIIFSVRTKDSNKDVVVEGLRRARYKFPGQQKIILSKKWGFTNLDRPEYLKKREAGEVKDDGAFVKFLSKKGSLENNIREFPEYFAAQA
For B3, the binding [1] was “binds”.

B4: Arx1-GFP (protein, UniProt Q03862 1-593)
chain: MALAISHEDTQILLKDKNILQESVLNKYRTAGQIAQTALKYVTSLINDSYHSKTTQRQLTVPELCLLTDSFILTRLEQYYKNKVNERGIAIPTTIDIDQISGGWCPEIDDTQNLLNWNKGKDSTFASSVTGTLRPGDLVKITLGVHIDGYTSEVSHTMVIYPVDETKPILQPTGPLLGGKADAVAAAHIAMETVVALLACALTPEKLPASLGGTSSGITGQLIRTIVDTIARSYNCGVVPGSRVRRIRRFLAGQNEGIVAEREYKGVVWTESHQEADLLSNTDAKDLTVVDRGQSTPFTNVSAIPSDDFVVQSGEVYLIDLKMASLEHCTKKGLVTLETVDSYTGKSHKAGELIARPGAYVRDFAQTHILKLKTSRQLLTKIDKQGVYPFKLSHLSSNFPFVHENEEELQSLKKDLKSFRLGMSEISNNYLCVESPIQIARWVPWDHILKATNPNGNLSYDATSTLTLPGHELPLPKLGVSAIKLKSLMNSTKESISLPVARECNTIVLCDSSVSTTDRPELLRLTGGSKTCQPSWIHSQHELNPQDSIVQGIFQLATLAKDKRFGLLLKETQPMKQKSVETSNGGVEETMKM
In the case of B4, the binding [2] is reported as “binds”.
